Measurements from PubChem BioAssay (NCATS).
This list was built around the results that the source calls inconclusive (neither active nor inactive); the mix of calls is not that of the screen. A potency beside an inconclusive call is a rough fit, not a confirmed value. The source made the active and inactive calls. Calls come from the whole dose curve; as a rule, active = well fitted curve in the direction sought with a large enough effect; inconclusive = small, poorly fitted or top-dose-only effect, or another doubt; inactive = no such curve, though single readings can be large; an effect the other way counts as inactive or inconclusive.

The chains behind the UniProt entries cited, without tags or fusion partners. Where a name states a change or a piece, a line headed by the entry shows the natural chain unless it says otherwise.
UniProt O15648: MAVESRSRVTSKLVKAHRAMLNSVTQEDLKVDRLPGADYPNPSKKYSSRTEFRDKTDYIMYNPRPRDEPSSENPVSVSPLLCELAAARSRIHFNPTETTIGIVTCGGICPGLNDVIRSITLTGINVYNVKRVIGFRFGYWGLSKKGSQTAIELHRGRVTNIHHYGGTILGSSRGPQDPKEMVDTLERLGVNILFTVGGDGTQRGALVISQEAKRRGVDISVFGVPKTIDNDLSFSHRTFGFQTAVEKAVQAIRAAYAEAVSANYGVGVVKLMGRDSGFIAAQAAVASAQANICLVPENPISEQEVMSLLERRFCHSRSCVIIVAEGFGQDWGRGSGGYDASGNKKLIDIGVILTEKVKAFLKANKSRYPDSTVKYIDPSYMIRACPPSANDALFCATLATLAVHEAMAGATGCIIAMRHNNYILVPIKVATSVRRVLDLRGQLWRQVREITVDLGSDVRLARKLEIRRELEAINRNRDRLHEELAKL
UniProt O89049, whole entry, looked up: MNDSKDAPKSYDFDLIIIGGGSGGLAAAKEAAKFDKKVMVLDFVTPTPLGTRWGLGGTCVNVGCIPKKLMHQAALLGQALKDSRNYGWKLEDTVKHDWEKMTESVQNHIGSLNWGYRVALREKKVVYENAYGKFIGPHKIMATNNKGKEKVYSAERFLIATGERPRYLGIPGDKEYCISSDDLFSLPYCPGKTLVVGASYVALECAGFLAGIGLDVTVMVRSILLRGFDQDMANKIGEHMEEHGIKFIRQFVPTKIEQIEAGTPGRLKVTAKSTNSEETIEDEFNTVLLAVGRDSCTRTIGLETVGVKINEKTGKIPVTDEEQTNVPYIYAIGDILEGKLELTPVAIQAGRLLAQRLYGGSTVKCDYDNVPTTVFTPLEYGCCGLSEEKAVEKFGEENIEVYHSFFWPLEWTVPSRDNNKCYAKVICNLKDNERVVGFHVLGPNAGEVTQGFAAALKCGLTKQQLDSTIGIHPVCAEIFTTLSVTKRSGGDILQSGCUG

Target: ATP-dependent 6-phosphofructokinase (Trypanosoma brucei brucei) (UniProt O15648)
Experiment: qHTS Validation Assay to Find Inhibitors of T. brucei phosphofructokinase (AID 485368);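 for activity change, negative = inhibition: 0% = full PFK enzyme control and -100% = wells without enzyme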
Conditions: T. brucei PFK enzyme assay, qHTS 7-point titration; series mostly up to 57.5 µM; activity change, negative = inhibition: at the top concentration
How it was run: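 Enzyme reaction in triethanolamine buffer pH 8.0 with 5 mM MgCl2, 0.01% Tween20 and 0.1% BSA; PFK 1.25 nM, F6P 0.5 mM, ATP 0.1 mM, 45 min RT. ADP quantified by ADP-Glo.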
Potency is the fitted concentration of half-maximal effect.

Row | SMILES | outcome | Potency | activity change, negative = inhibition
1 | NNc1nncc2ccccc12 | inactive | – | –
2 | CCc1ccc(/C=C2/SC(=S)NC2=O)cc1 | – | inconclusive: 8.49 µM [activator, single point] | –
3 | COc1ccc(/C=C/C(=O)Nc2ccccc2C(=O)O)cc1OC | – | inconclusive: 30.1 µM [activator, partial curve] | –
4 | CCCn1cnc2c1c(=O)n(CCCCC(C)=O)c(=O)n2C | inactive | – | –
5 | CC(C)C(=O)Nc1ccc([N+](=O)[O-])c(C(F)(F)F)c1 | inactive | – | –
6 | O=C(O)CN(CCOCCOCCN(CC(=O)O)CC(=O)O)CC(=O)O | inactive | – | –
7 | C[C@@]1(C2CCCC2)Cc2cc(OCC(=O)O)c(Cl)c(Cl)c2C1=O | – | inconclusive: 0.151 µM [activator, full curve, poor fit] | –
8 | O=C1/C(=C/c2ccsc2)CC/C1=C\c1cccs1 | – | inconclusive: 33.8 µM [falling, single point] | –
9 | Cc1[nH]c(=O)c(C#N)cc1-c1ccncc1 | – | inconclusive: 33.8 µM [activator, single point] | –
10 | Clc1ccc2nsnc2c1NC1=NCCN1 | – | inconclusive: 0.757 µM [activator, single point] | –
11 | OCC1O[C@H](O)C(Cl)C(O)C1O (stereo not given in full) | – | inconclusive: 0.849 µM [activator, full curve, poor fit] | –
12 | NC(=O)c1ccccc1 | – | – | inactive: -0.866%

Test system: not listed separately
Experiment: Quantitative high throughput screen for delayed death inhibitors of the malarial parasite plastid, 96 hour incubation (AID 488745); note: nearly all actives have a fitted effect of over 70% in size; for activity change, negative = inhibition: % is set by controls: 0 for no effect and ±100 for the full control effect
Conditions: Plasmodium falciparum growth; series mostly up to 28.7 µM; activity change, negative = inhibition: at the top concentration
How it was run: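 Luciferase-expressing P. falciparum in erythrocytes (2% hematocrit, 0.1% parasitemia) incubated with compound for 96 h at 37 C, 5% CO2, in RPMI 1640 with 0.5% Albumax. Growth inhibition read as decreased luminescence.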

Row | SMILES | activity change, negative = inhibition | Potency
13 | O=c1[nH]c2ccccc2n1CCCN1CCN(C(c2ccccc2)c2ccccc2)CC1 | inactive: 2.62% | –
14 | Oc1ccc(C2CNCc3sccc32)cc1O (stereo not given) | – | inconclusive: 18.5 µM [inhibitor, single point]
15 | CN1CCc2cc(NC(=O)Nc3cccnc3)ccc21 | – | inconclusive: 11.7 µM [activator, single point]
16 | COc1ccc(/C=C/C(=O)Nc2ccccc2C(=O)O)cc1OC | – | inconclusive: 9.28 µM [inhibitor, partial curve, poor fit]
17 | C[C@@]1(C2CCCC2)Cc2cc(OCC(=O)O)c(Cl)c(Cl)c2C1=O | – | inconclusive: 4.15 µM [activator, single point]
18 | CCn1cc(C(=O)O)c(=O)c2cc(F)c(N3CCNC(C)C3)c(F)c21 (stereo not given) | – | inconclusive: 10.4 µM [inhibitor, single point]

Test system: not listed separately
Experiment: Quantitative high throughput screen for delayed death inhibitors of the malarial parasite plastid, 48 hour incubation (AID 488752); note: nearly all actives have a fitted effect of over 65% in size; for activity change, negative = inhibition: % is set by controls: 0 for no effect and ±100 for the full control effect
Conditions: Plasmodium falciparum growth; series mostly up to 28.7 µM; activity change, negative = inhibition: at the top concentration
How it was run: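 Erythrocytes infected with firefly luciferase-expressing P. falciparum (2% hematocrit, 0.1% parasitemia) cultured with compound for 48 h at 37 C, 5% CO2, in RPMI 1640/0.5% Albumax. Growth inhibition read as loss of luminescence.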

Row | SMILES | Potency | activity change, negative = inhibition
19 | O=c1c(-c2ccc(O)cc2)coc2cc(O)cc(O)c12 | inconclusive: 1.85 µM [activator, full curve] | –
20 | O=C(c1ccccc1)c1ccc2n1CCC2C(=O)O (stereo not given) | – | inactive: 2.07%
21 | CCN1/C(=C/C(C)=O)Sc2ccc(OC)cc21 | – | inactive: -9.73%
22 | Oc1ccc(C2CNCc3sccc32)cc1O (stereo not given) | – | inactive: -105%
23 | CN1[C@@H](CC(=O)c2ccccc2)CCC[C@H]1C[C@H](O)c1ccccc1 | – | inactive: -1.85%
24 | CNC(=O)Oc1ccc2c(c1)[C@]1(C)CCN(C)[C@@H]1N2C | – | inactive: -24.8%
25 | Cc1ccc(O)c(N=Nc2ccccc2)n1 | – | inactive: 9.23%
26 | CC(C)Cc1ccc(C(C)C(=O)O)cc1 (stereo not given) | – | inactive: 2.38%
27 | CN1CCc2cc(NC(=O)Nc3cccnc3)ccc21 | inconclusive: 11.7 µM [activator, single point] | –
28 | Cc1cccc(/C=C/c2ccccc2)n1 | inconclusive: 7.38 µM [activator, partial curve] | –
29 | COC1(C2=NCCN2)COc2ccccc2O1 (stereo not given) | – | inactive: -14.6%
30 | NNc1nncc2ccccc12 | inconclusive: 0.738 µM [activator, full curve] | –
31 | COc1ccc(/C=C/C(=O)Nc2ccccc2C(=O)O)cc1OC | inconclusive: 6.57 µM [inhibitor, partial curve, poor fit] | –
32 | CCCn1cnc2c1c(=O)n(CCCCC(C)=O)c(=O)n2C | – | inactive: 17.1%
33 | OCC1O[C@H](O)C(Cl)C(O)C1O (stereo not given in full) | – | inactive: -13%

Arranged by molecular weight (high to low): some entries from above.
Row | SMILES | Potency | activity change, negative = inhibition
19 | O=c1c(-c2ccc(O)cc2)coc2cc(O)cc(O)c12 | inconclusive: 1.85 µM [activator, full curve] | –
20 | O=C(c1ccccc1)c1ccc2n1CCC2C(=O)O (stereo not given) | – | inactive: 2.07%
22 | Oc1ccc(C2CNCc3sccc32)cc1O (stereo not given) | – | inactive: -105%

Target: Thioredoxin reductase 1, cytoplasmic (Rattus norvegicus) (UniProt O89049)
Experiment: qHTS Assay for Substrates of Mammalian Selenoprotein Thioredoxin Reductase 1 (TrxR1) (AID 488772);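 note: NADPH fluorescence in the first read after selenite addition and not the 8 min delta; a drop in NADPH fluorescence below the no-compound background marks a TrxR1 substrate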; for activity change, negative = NADPH consumption: 0% is about no effect
Conditions: purified TrxR1, NADPH consumption substrate assay; series mostly up to 57.1 µM; activity change, negative = NADPH consumption: at the top concentration
How it was run: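 Quantitative HTS in Tris-HCl buffer at pH 7.5 with EDTA and Tween-20, using rat TrxR1, 400 uM NADPH and 400 uM selenite (final). A fall in initial NADPH fluorescence relative to background marked substrate behaviour.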

Row | SMILES | Potency | activity change, negative = NADPH consumption
34 | O=C(c1ccccc1)c1ccc2n1CCC2C(=O)O (stereo not given) | inconclusive: 26.7 µM [inhibitor, partial curve] | –
35 | CCN1/C(=C/C(C)=O)Sc2ccc(OC)cc21 | inconclusive: 18.9 µM [inhibitor, partial curve, poor fit] | –
36 | NCCSSCCN | inconclusive: 18.9 µM [inhibitor, partial curve] | –
37 | NNc1nncc2ccccc12 | inconclusive: 18.9 µM [inhibitor, partial curve, poor fit] | –
38 | CCc1ccc(/C=C2/SC(=S)NC2=O)cc1 | inconclusive: 42.3 µM [inhibitor, partial curve, poor fit] | –
39 | CCn1cc(C(=O)O)c(=O)c2cc(F)c(N3CCNC(C)C3)c(F)c21 (stereo not given) | – | inactive: 56.9%

Target: Thioredoxin reductase 1, cytoplasmic (Rattus norvegicus) (UniProt O89049)
Experiment: qHTS Assay for Inhibitors of Mammalian Selenoprotein Thioredoxin Reductase 1 (TrxR1) (AID 488773); note: nearly all actives have a fitted effect of over 40% in size
Conditions: purified TrxR1 enzyme activity; Potency: inhibition; series mostly up to 57.1 µM; activity change, negative = inhibition: at the top concentration
How it was run: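 Steps: enzyme (90 nM) plus NADPH (400 uM final), 5 min at ~22 deg C; compound added, 15 min; selenite (400 uM final) added; fluorescence followed for 8 min. Concentration-response curves derived from the normalized delta values.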

Row | SMILES | Potency
40 | Oc1ccc(C2CNCc3sccc32)cc1O (stereo not given) | inconclusive: 1.19 µM [inhibitor, full curve]
41 | O=C(O)c1cc(=O)c2c(Cl)cc(Cl)cc2[nH]1 | inconclusive: 8.44 µM [inhibitor, partial curve]
42 | CC1=C(CC(=O)O)c2cc(F)ccc2/C1=C\c1ccc(S(C)=O)cc1 (stereo not given) | inconclusive: 26.7 µM [inhibitor, partial curve]
43 | O=c1[nH]c(=O)c2nc3ccccc3nc2[nH]1 | inconclusive: 26.7 µM [inhibitor, single point]
44 | Cc1ccc(O)c(N=Nc2ccccc2)n1 | inconclusive: 1.5 µM [inhibitor, full curve]
45 | CCc1ccc(/C=C2/SC(=S)NC2=O)cc1 | inconclusive: 37.7 µM [inhibitor, single point]
